Source: PubChem BioAssay AID540303 (National Center for Advancing Translational Sciences (NCATS), 2011)
Screen size: about 330,000 compounds; about 1,000 (0.3%) were called active. Inconclusive results, whose numbers are uncertain, are shown with a selection of clear calls. Calls come from the whole dose curve; as a rule, active = well fitted inhibition curve with a large enough effect; inconclusive = small, poorly fitted or top-dose-only effect; inactive = no such curve, though single readings can be large or run the other way; tested in mouse RAW 264.7 cells. Potencies beside an inconclusive call are fits to weak or partial responses and may not hold up.

Experiment: qHTS for Inhibitors of Cell Surface uPA Generation; note: nearly all actives have a fitted effect of over 55% in size
Settings: cell surface uPA generation assay; series mostly up to 38.3 µM
In short: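 ATP-Lite luminescence in RAW 264.7 cells after 24 h of exposure to compound, tested up to 38.3 uM final in 1:5 steps. Raised ATP reflects inhibition of uPA-dependent LF delivery to the cytoplasm.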
Potency is the fitted concentration of half-maximal effect.

Row | Compound | Potency
1 | COc1ccc(/C=N\NC(=O)c2ccccc2Br)cc1COc1c(F)c(F)cc(F)c1F | inconclusive: 11.2 µM [inhibitor, partial curve, poor fit]
2 | CC1CC(C)CN(CCCNC(=O)c2ccc3c(c2)ncn3C2CCCC2)C1 (configuration not stated) | inconclusive: 28.2 µM [inhibitor, single point]
3 | O=C(Nc1ccc(OCc2ccccc2Cl)cc1)c1cccnc1 | inconclusive: 10 µM [inhibitor, single point]
4 | CC1(C)CC2(CCO1)OC(=O)CC2C(=O)Nc1ccccc1Cl (configuration not stated) | inconclusive: 28.2 µM [inhibitor, single point]
5 | COc1ccc(C=O)cc1C1=CC(=O)C[C@H](c2ccc(Cl)cc2)C1 | inconclusive: 12.6 µM [inhibitor, single point]
6 | O=C(c1cc2ccccc2oc1=O)N1CCN(c2ccc(N3CCOCC3)nn2)CC1 | inconclusive: 28.2 µM [inhibitor, single point]
7 | COC(=O)C1=C(CS(=O)(=O)c2ccccc2)NC(=O)NC1c1ccc(OC)c(OC)c1 (configuration not stated) | inconclusive: 12.6 µM [inhibitor, single point]
8 | COc1ccc2c(=O)c(-c3ccc4c(c3)OCO4)coc2c1 | inconclusive: 0.891 µM [inhibitor, full curve, poor fit]
9 | COc1cc(/C=C/C(=O)OCC(=O)Nc2ccc3c(c2)OCO3)ccc1O | inconclusive: 3.16 µM [inhibitor, partial curve, poor fit]
10 | COc1ccccc1S(=O)(=O)CC(O)COc1ccccc1Cl (configuration not stated) | inactive
11 | Clc1ccc(-c2nc3cnccn3c2Nc2ccc3c(c2)OCO3)cc1 | inconclusive: 14.1 µM [inhibitor, partial curve, poor fit]
12 | Cc1ccc(-c2cnc(C3CC3)o2)cc1S(=O)(=O)Nc1ccccc1 | inconclusive: 1.26 µM [inhibitor, partial curve, poor fit]
13 | Cc1cccc(C(=O)Oc2cccc3c(O)cccc23)c1 | inconclusive: 12.6 µM [inhibitor, single point]
14 | Cc1ccc(NC(=O)C2C3CCC(O3)C2C(=O)O)cc1Cl (configuration not stated) | inconclusive: 10 µM [inhibitor, partial curve]
15 | Nc1ccccc1SSc1ccccc1N | inconclusive: 3.98 µM [inhibitor, partial curve, poor fit]
16 | COc1ccc(-c2cc(CCCC(=O)NCc3ccccn3)no2)cc1 | inconclusive: 6.31 µM [inhibitor, partial curve, poor fit]
17 | Cc1ccc(C(=O)c2cc([N+](=O)[O-])ccc2N2CC(C)OC(C)C2)cc1 (configuration not stated) | inconclusive: 8.91 µM [inhibitor, partial curve, poor fit]
18 | Nc1nc(-c2c[nH]c3ccccc23)cs1 | inactive
19 | COC(=O)COc1ccc(/C=C2\SC(=O)N(CC(=O)Nc3ccccc3F)C2=O)cc1 | inactive
20 | Cc1ccc(CNC(=O)CC2(CC3=NS(=O)(=O)c4ccccc4N3)CCCC2)cc1 | inactive
21 | O=C1/C(=C\c2cccc(O)c2)SC(=S)N1Cc1ccccc1 | inactive
22 | Cc1ccc(CNC(=O)CCC2CCCN(Cc3cc4ccccc4o3)C2)o1 (configuration not stated) | inconclusive: 28.2 µM [inhibitor, single point]
23 | Cc1nc2cc(-c3ccc(Cl)cc3)nn2c(C)c1CCC(=O)NC(C)c1ccc2c(c1)OCCO2 (configuration not stated) | inconclusive: 5.01 µM [inhibitor, partial curve, poor fit]

Row | Compound | Potency
24 | CC(=O)OCc1c(C(F)(F)F)nn(C)c1SCc1ccc(Cl)cc1 | inactive
25 | NC(=O)c1nn2c(C(F)(F)F)cc(-c3ccccc3)nc2c1Br | inconclusive: 11.2 µM [inhibitor, single point]
26 | CCOC(=O)N1CCN(S(=O)(=O)N2CCCC(C(=O)NCCc3ccc(OC)c(OC)c3)C2)CC1 (configuration not stated) | inactive
27 | CC(C)(C)OC(=O)N1CCC(NC(=O)c2[nH]cnc2C(=O)N[C@@H](Cc2ccccc2)C(=O)OCc2ccccc2)CC1 | inconclusive: 12.6 µM [inhibitor, single point]
28 | C=CCC[C@H](Cc1ccc(F)cc1)C(=O)OC[C@H](Cc1c[nH]c2ccccc12)NC(=O)[C@@H](CC=C)CC(=O)N[C@H](CO)Cc1ccccc1 | inconclusive: 12.6 µM [inhibitor, single point]
29 | CC(C)(C)OC(=O)N1CC(O)CC1C(=O)OCC(=O)c1ccc(-c2ccccc2)cc1 (configuration not stated) | inactive
30 | COc1cc(/C=C(\C#N)C(N)=O)ccc1OS(=O)(=O)c1ccc(C)cc1 | inactive
31 | COc1ccccc1NC(=O)c1ccc(CSc2ccccc2)o1 | inconclusive: 12.6 µM [inhibitor, single point]
32 | O=C(Oc1ccc(N(C(=O)c2ccncc2)S(=O)(=O)c2ccc(Cl)cc2)cc1)c1ccncc1 | inconclusive: 11.2 µM [inhibitor, single point]
33 | Fc1ccc(Nc2ccc3ccccc3n2)c(F)c1 | inconclusive: 6.31 µM [inhibitor, single point]
34 | COc1ccc(CNc2nc3nc(C)cc(C)n3n2)cc1OC | inactive
35 | CCn1c(SCC(=O)NC2CCCCC2)nnc1-c1cccnc1 | inconclusive: 1.12 µM [inhibitor, partial curve, poor fit]
36 | CC(/C=N/NC(=O)c1cc(-c2ccncc2)nc2ccccc12)=C\c1ccco1 | inconclusive: 0.0141 µM [inhibitor, full curve, poor fit]
37 | COc1ccc(C(=O)N[C@H](C(=O)Nc2nc3ccccc3[nH]2)C(C)C)cc1 | inactive
38 | CCOc1ccccc1NC(=O)CN1C(=O)COc2ccc(S(=O)(=O)N3CCOCC3)cc21 | inactive
39 | COc1ccc(C2c3c(-c4ccccc4O)n[nH]c3C(=O)N2CCc2ccc(OC)c(OC)c2)cc1 (configuration not stated) | inactive
40 | O=C(Nc1nnc(C2CC2)o1)c1ccc(S(=O)(=O)N2CCCc3ccccc32)cc1 | active: 6.31 µM
41 | O=C(NC(NC(=S)Nc1ccccc1)C(Cl)(Cl)Cl)c1cccc(Cl)c1 (configuration not stated) | inconclusive: 28.2 µM [inhibitor, single point]
42 | Cc1cc(C(=O)COc2cccnc2[N+](=O)[O-])c(C)n1-c1ccccc1F | inconclusive: 8.91 µM [inhibitor, partial curve]
43 | O=S(=O)(Nc1ccc2c3c(cccc13)CC2)c1ccc(F)cc1 | inactive
44 | Cc1ccc2oc(C(=O)NCCCN3CCOCC3)c(C)c2c1 | inactive
45 | Cc1c(OCC(=O)Nc2cccnc2)ccc2c3c(c(=O)oc12)CCC3 | inconclusive: 12.6 µM [inhibitor, single point]
46 | N#CC(C#N)=CN=c1ccn(Cc2ccc(Cl)cc2Cl)cc1 | inconclusive: 12.6 µM [inhibitor, single point]

Row | Compound | Potency
47 | C=CCN1C(=O)c2ccc(C(=O)N3CCN(S(=O)(=O)c4cccc([N+](=O)[O-])c4)CC3)cc2C1=O | inactive
48 | O=[N+]([O-])c1ccc(COc2ccc(CN3CCCC3)cc2)cc1 | inconclusive: 31.6 µM [inhibitor, partial curve, poor fit]
49 | CC1(C)Cc2c(c(-c3ccco3)nc3sc4c(NCCO)ncnc4c23)CO1 | inconclusive: 3.16 µM [inhibitor, single point]
50 | Cc1ccc(-c2csc3nc4c5ccccc5c(NCCCN(C)C)nn4c(=O)c23)cc1 | inactive
51 | O=C(O)c1cc(NN=C2CCN(Cc3ccccc3)CC2)ccc1Cl | inactive
52 | CCOc1ccc(CCNC(=O)Cc2ccc(NC(=O)C3=C(C)OCCS3)cc2)cc1 | inconclusive: 8.91 µM [inhibitor, single point]
53 | Cc1cccc(-n2c(SCC(=O)NCC3CCCO3)nc3ccccc3c2=O)c1C (configuration not stated) | inconclusive: 7.08 µM [inhibitor, partial curve, poor fit]
54 | O=C(/C=C/c1ccccc1)c1ccccc1 | inconclusive: 7.94 µM [inhibitor, partial curve, poor fit]
55 | O=C1/C(=C/C=C/c2ccccc2)Oc2c1ccc(O)c2CN1CCN(CCO)CC1 | inconclusive: 14.1 µM [inhibitor, single point]
56 | COc1ccccc1NC(=O)Nc1ccnn1C1CCN(C(=O)c2cscn2)CC1 | inconclusive: 8.91 µM [inhibitor, single point]
57 | COc1ccc2c(c1)C(=O)[C@@H](O)[C@H](c1ccc(OC)c(Br)c1)O2 | inconclusive: 28.2 µM [inhibitor, single point]
58 | Cn1c(=O)c([N+](=O)[O-])c(-n2cnc3ccccc32)c2ccccc21 | inactive
59 | O=C(NCC(c1ccco1)N1CCN(c2ccccc2F)CC1)C1CCCCC1 (configuration not stated) | inconclusive: 17.8 µM [inhibitor, partial curve, poor fit]
60 | CC(=O)n1cc(/C=N/NC(N)=S)c2ccccc21 | inactive
61 | C=CCC1=C/C(=C\c2c(N)n3nc(CC(=O)N4CCCC4)sc3nc2=O)C=C(OC)C1=O | inactive
62 | CCC(=O)Nc1ccc(NC(=O)c2ccccc2)nc1 | inconclusive: 10 µM [inhibitor, partial curve, poor fit]
63 | Cn1c(=O)c2[nH]c(Cc3cccc4ccccc34)nc2n(C)c1=O | inactive
64 | Cc1cc(C(C)(C)C)oc1C(=O)OCC(=O)NC1CCCCC1 | inconclusive: 11.2 µM [inhibitor, partial curve, poor fit]
65 | COc1ccc2[nH]c3c(C)c4ccncc4c(C)c3c2c1 | active: 1.78 µM
66 | O=C(CN1CCN(c2ccccc2O)CC1)Nc1ccc(S(=O)(=O)N2CCCCCC2)cc1 | inconclusive: 12.6 µM [inhibitor, single point]
67 | CC(=O)c1sc(NC(=O)c2oc3ccc(F)cc3c2C)nc1C | inconclusive: 8.91 µM [inhibitor, partial curve, poor fit]

Of the compounds above, two contain a thiophene ring, fused or not:
Row | Compound | Potency
49 | CC1(C)Cc2c(c(-c3ccco3)nc3sc4c(NCCO)ncnc4c23)CO1 | inconclusive: 3.16 µM [inhibitor, single point]
50 | Cc1ccc(-c2csc3nc4c5ccccc5c(NCCCN(C)C)nn4c(=O)c23)cc1 | inactive
